Structures can show the parent of a compound that is named as a salt. The list shows a part of the results. Repeats are few or missing, and single values can be far off.
Assays:
A2780 = assay: cell growth inhibition ratio vs untreated control (CCK8); higher = stronger inhibition of cell viability; settings: 10 µM; 48 h
Description: (§1)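 Natural product library (Topscience) screened at 10 µM final concentration for 48 h on ovarian cancer A2780 cells and patient-derived ovarian cancer cells (PDC) in 96-well plates; viability read by CCK8 and reported as inhibition ratio (%) relative to untreated control. Single-dose primary screen.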

[1] = tested on: patient-derived ovarian cancer cells (PDC); assay: as above; settings: 10 µM; 48 h
Description: as §1

COc1cc(C(C)=O)ccc1O [Acetovanillone]
cell growth inhibition ratio (A2780): 16.7% | cell growth inhibition ratio [1]: 6.03%

COc1ccc(CCc2cc(OC)c(OC)c(OC)c2)cc1O [Erianin]
cell growth inhibition ratio (A2780): 88% | cell growth inhibition ratio [1]: 25.6%

C[C@H](CCC(=O)O)[C@H]1CC[C@H]2[C@@H]3[C@@H](O)C[C@@H]4C[C@H](O)CC[C@]4(C)[C@H]3CC[C@]12C [Ursodeoxycholic acid]
cell growth inhibition ratio (A2780): -4.01% | cell growth inhibition ratio [1]: -11.5%

C/C=C1/[C@H](O[C@@H]2O[C@H](CO)[C@@H](O)[C@H](O)[C@H]2O)OC=C(C(=O)OC)[C@H]1CC(=O)OCCc1ccc(O)c(O)c1 [Oleuropein]
cell growth inhibition ratio (A2780): 7.63% | cell growth inhibition ratio [1]: -10%

C=CCc1ccc(O)c(-c2cc(CC=C)ccc2O)c1 [Magnolol]
cell growth inhibition ratio (A2780): -24.3% | cell growth inhibition ratio [1]: -1.21%

O=C(O)CCCC[C@@H]1CCSS1 [Thioctic acid]
cell growth inhibition ratio (A2780): 10.9% | cell growth inhibition ratio [1]: 0.778%

OC[C@H]1O[C@@H]2O[C@H]3[C@H](O)[C@@H](O)[C@@H](O[C@H]4[C@H](O)[C@@H](O)[C@@H](O[C@H]5[C@H](O)[C@@H](O)[C@@H](O[C@H]6[C@H](O)[C@@H](O)[C@@H](O[C@H]7[C@H](O)[C@@H](O)[C@@H](O[C@H]8[C@H](O)[C@@H](O)[C@@H](O[C@H]1[C@H](O)[C@H]2O)O[C@@H]8CO)O[C@@H]7CO)O[C@@H]6CO)O[C@@H]5CO)O[C@@H]4CO)O[C@@H]3CO [Beta-Cyclodextrin]
cell growth inhibition ratio (A2780): 1.24% | cell growth inhibition ratio [1]: -7.49%

O=C(O)CCCCCCCC(=O)O [Azelaic acid]
cell growth inhibition ratio (A2780): 4.42% | cell growth inhibition ratio [1]: 8.25%

C[C@H]1O[C@@H](O[C@H]2CC[C@@]3(C)[C@@H](CC[C@]4(C)[C@@H]3C=C[C@]35OC[C@@]6(CCC(C)(C)C[C@H]63)[C@@H](O)C[C@]54C)[C@]2(C)CO)[C@H](O)[C@@H](O[C@@H]2O[C@H](CO)[C@@H](O)[C@H](O)[C@H]2O)[C@H]1O [Saikosaponin A]
cell growth inhibition ratio (A2780): 9.43% | cell growth inhibition ratio [1]: -0.0149%

C[C@@H]1O[C@@H](Oc2c(-c3ccc(O)c(O)c3)oc3cc(O)cc(O)c3c2=O)[C@H](O)[C@H](O)[C@H]1O [Quercitrin]
cell growth inhibition ratio (A2780): -2.72% | cell growth inhibition ratio [1]: 6.32%

COc1c(C)c2c(c(O)c1C/C=C(\C)CCC(=O)O)C(=O)OC2 [Mycophenolic acid]
cell growth inhibition ratio (A2780): 80.5% | cell growth inhibition ratio [1]: 47.2%

Nc1[nH]cnc2ncnc1-2 [Adenine]
cell growth inhibition ratio (A2780): 2.29% | cell growth inhibition ratio [1]: -2.94%

OCc1ccccc1O[C@@H]1O[C@H](CO)[C@@H](O)[C@H](O)[C@H]1O [Salicoside]
cell growth inhibition ratio (A2780): 15.5% | cell growth inhibition ratio [1]: -6.59%

COc1cc(C2Oc3cc([C@H]4Oc5cc(O)cc(O)c5C(=O)[C@@H]4O)ccc3OC2CO)ccc1O (stereo partly specified) [Silibinin]
cell growth inhibition ratio (A2780): 7.5% | cell growth inhibition ratio [1]: -2.63%

O=C1C[C@@H](c2ccc(O)cc2)Oc2cc(O)cc(O)c21 [Naringenin]
cell growth inhibition ratio (A2780): -0.673% | cell growth inhibition ratio [1]: -9.11%

O=C(O)CCC(=O)O [Succinic acid]
cell growth inhibition ratio (A2780): 7.83% | cell growth inhibition ratio [1]: -3.58%

C[N+]1(C)CCCC1C(=O)O (stereo unspecified) [Stachydrine Hydrochloride]
cell growth inhibition ratio (A2780): 17.8% | cell growth inhibition ratio [1]: 19.6%

OC[C@H]1OC(O)[C@H](O)[C@@H](O)[C@@H]1O (stereo partly drawn) [D(+)-Glucose]
cell growth inhibition ratio (A2780): 1.59% | cell growth inhibition ratio [1]: -6.01%

Reference: the supplement of paper PMC10373366
